Laboratory results reported in paper PMC3723668.
Results are given in words; binding and its absence hold for the method and conditions named. In cells and extracts the contact can be indirect. Some entries that bind do so weakly or less than the wild type. Where a sequence is shown, tags or fusion partners need not be part of it.

By UniProt entry, the sequences of proteins in these tests, tags left out. Residues count along the entry.
UniProt O00401, residues 22-459: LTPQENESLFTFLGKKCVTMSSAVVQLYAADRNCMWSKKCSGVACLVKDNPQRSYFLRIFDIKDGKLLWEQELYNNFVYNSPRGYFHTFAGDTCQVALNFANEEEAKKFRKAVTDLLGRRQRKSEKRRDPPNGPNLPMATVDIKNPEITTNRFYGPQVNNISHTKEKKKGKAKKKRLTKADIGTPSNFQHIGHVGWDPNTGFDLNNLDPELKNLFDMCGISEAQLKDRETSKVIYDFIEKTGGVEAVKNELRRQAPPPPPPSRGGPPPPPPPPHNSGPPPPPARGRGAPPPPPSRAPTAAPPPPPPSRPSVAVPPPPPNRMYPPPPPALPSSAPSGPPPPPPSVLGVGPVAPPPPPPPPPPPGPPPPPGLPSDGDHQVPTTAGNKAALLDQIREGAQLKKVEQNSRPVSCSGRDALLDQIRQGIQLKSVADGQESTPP
UniProt O43426, residues 1003-1558: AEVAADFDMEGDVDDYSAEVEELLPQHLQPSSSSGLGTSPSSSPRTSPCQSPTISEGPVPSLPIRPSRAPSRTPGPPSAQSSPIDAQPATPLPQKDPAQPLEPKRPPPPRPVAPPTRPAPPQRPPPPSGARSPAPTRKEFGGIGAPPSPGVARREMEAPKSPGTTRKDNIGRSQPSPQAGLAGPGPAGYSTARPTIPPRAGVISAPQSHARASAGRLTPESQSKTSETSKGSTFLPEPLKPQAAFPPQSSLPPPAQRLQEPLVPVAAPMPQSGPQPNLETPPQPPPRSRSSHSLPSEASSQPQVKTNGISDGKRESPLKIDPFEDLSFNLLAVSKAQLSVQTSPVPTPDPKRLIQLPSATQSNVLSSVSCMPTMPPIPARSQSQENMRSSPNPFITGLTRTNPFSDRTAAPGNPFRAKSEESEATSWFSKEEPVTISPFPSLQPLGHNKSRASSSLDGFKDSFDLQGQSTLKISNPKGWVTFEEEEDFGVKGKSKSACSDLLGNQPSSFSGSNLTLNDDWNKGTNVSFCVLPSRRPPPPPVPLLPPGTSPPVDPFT

T1: GST-fused SH3(A-E) domains of ITSN2 (residues 749-1193) (human) (UniProt Q9NZM3)
T1 sequence: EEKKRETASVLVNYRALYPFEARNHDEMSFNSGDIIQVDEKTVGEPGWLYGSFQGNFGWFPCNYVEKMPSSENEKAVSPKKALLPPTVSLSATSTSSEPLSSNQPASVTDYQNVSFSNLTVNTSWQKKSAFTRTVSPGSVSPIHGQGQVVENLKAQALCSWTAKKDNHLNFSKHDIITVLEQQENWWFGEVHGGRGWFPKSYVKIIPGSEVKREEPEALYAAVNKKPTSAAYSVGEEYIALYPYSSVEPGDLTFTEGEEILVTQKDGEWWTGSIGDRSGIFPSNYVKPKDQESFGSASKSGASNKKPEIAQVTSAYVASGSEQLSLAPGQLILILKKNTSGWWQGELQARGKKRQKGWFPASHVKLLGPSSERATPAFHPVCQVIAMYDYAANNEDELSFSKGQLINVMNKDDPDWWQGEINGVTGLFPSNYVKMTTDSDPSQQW

T2: GST-fused SH3A domain of ITSN2 (residues 749-826) (human) (UniProt Q9NZM3)
T2 sequence: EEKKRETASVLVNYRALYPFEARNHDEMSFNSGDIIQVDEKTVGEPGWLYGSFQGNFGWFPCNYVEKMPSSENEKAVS

T3: GST-fused SH3C domain of ITSN2 (residues 976-1047) (human) (UniProt Q9NZM3)
T3 sequence: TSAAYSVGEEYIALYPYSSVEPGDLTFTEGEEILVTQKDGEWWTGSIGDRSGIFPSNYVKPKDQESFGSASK

T4: GST-fused SH3E domain of ITSN2 (residues 1116-1193) (human) (UniProt Q9NZM3)
T4 sequence: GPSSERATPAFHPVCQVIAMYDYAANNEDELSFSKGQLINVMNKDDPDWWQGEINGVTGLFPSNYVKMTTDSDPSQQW


Key:
[1] = target: T1, GST-fused SH3(A-E) domains of ITSN2 (residues 749-1193) (human); test: pull-down; GST-SH3 domains (5-20 ug) on glutathione beads incubated 2 h at 4°C with lysate of HEK293 cells expressing the tagged protein; 20 mM Tris-HCl pH 7.5, 0.5% NP40, 150 mM NaCl, 10% glycerol, 1 mM Na3VO4; immunoblot with antibodies against tags; only the target purified
[2] = target: T2, GST-fused SH3A domain of ITSN2 (residues 749-826) (human); test: as above
[3] = target: T3, GST-fused SH3C domain of ITSN2 (residues 976-1047) (human); test: as above
[4] = target: T4, GST-fused SH3E domain of ITSN2 (residues 1116-1193) (human); test: as above
[5] = target: T2, GST-fused SH3A domain of ITSN2 (residues 749-826) (human); test: pull-down; GST-SH3 domains (5-20 ug) on glutathione beads incubated 2 h at 4°C with lysate of mouse brain; 20 mM Tris-HCl pH 7.5, 0.5% NP40, 150 mM NaCl, 10% glycerol, 1 mM Na3VO4; immunoblot with antibodies against dynamin 1 or SOS1; only the target purified
[6] = target: T3, GST-fused SH3C domain of ITSN2 (residues 976-1047) (human); test: as above
[7] = target: T4, GST-fused SH3E domain of ITSN2 (residues 1116-1193) (human); test: as above

Row | binding [1] | binding [2] | binding [3] | binding [4] | Molecule | other results
1 | binds |  |  |  | Omni-N-WASP proline-rich domain (residues 22-459) (from UniProt O00401 22-459) (domain or fragment) | 
2 |  | binds | binds | binds | Omni-synaptojanin 1 proline-rich domain (residues 1003-1558) (from UniProt O43426 1003-1558) (domain or fragment) | 
3 |  |  |  |  | SOS1, endogenous in mouse brain (from UniProt Q62245 1-1319) | binding [5]: binds; binding [6]: binds; binding [7]: binds
4 |  | binds | binds | binds | Flag-SPRY2 (protein, UniProt O43597 1-315) MEARAQSGNGSQPLLQTPRDGGRQRGEPDPRDALTQQVHVLSLDQIRAIRNTNEYTEGPTVVPRPGLKPAPRPSTQHKHERLHGLPEHRQPPRLQHSQVHSSARAPLSRSISTVSSGSRSSTRTSTSSSSSEQRLLGSSFSSGPVADGIIRVQPKSELKPGELKPLSKEDLGLHAYRCEDCGKCKCKECTYPRPLPSDWICDKQCLCSAQNVIDYGTCVCCVKGLFYHCSNDDEDNCADNPCSCSQSHCCTRWSAMGVMSLFLPCLWCYLPAKGCLKLCQGCYDRVNRPGCRCKNSNTVCCKVPTVPPRNFEKPT | 
5 | binds |  |  |  | Myc-POB1 (protein, UniProt Q8NFH8 1-660) MEAAAAAAAAAAAAAAAGGGCGSGPPPLLLSEGEQQCYSELFARCAGAAGGGPGSGPPEAARVAPGTATAAAGPVADLFRASQLPAETLHQITELCGAKRVGYFGPTQFYIALKLIAAAQSGLPVRIESIKCELPLPRFMMSKNDGEIRFGNPAELHGTKVQIPYLTTEKNSFKRMDDEDKQQETQSPTMSPLASPPSSPPHYQRVPLSHGYSKLRSSAEQMHPAPYEARQPLVQPEGSSSGGPGTKPLRHQASLIRSFSVERELQDNSSYPDEPWRITEEQREYYVNQFRSLQPDPSSFISGSVAKNFFTKSKLSIPELSYIWELSDADCDGALTLPEFCAAFHLIVARKNGYPLPEGLPPTLQPEYLQAAFPKPKWDCQLFDSYSESLPANQQPRDLNRMEKTSVKDMADLPVPNQDVTSDDKQALKSTINEALPKDVSEDPATPKDSNSLKARPRSRSYSSTSIEEAMKRGEDPPTPPPRPQKTHSRASSLDLNKVFQPSVPATKSGLLPPPPALPPRPCPSQSEQVSEAELLPQLSRAPSQAAESSPAKKDVLYSQPPSKPIRRKFRPENQATENQEPSTAASGPASAATMKPHPTVQKQSSKQKKAIQTAIRKNKEANAVLARLNSELQQQLKEVHQERIALENQLEQLRPVTVL | 
6 |  | binds | binds | binds | Omni-Sema6A cytoplasmic domain (residues 650-1021) (domain or fragment, UniProt Q9H2E6 650-1021) LLAIAVILAFVMGAVFSGITVYCVCDHRRKDVAVVQRKEKELTHSRRGSMSSVTKLSGLFGDTQSKDPKPEAILTPLMHNGKLATPGNTAKMLIKADQHHLDLTALPTPESTPTLQQKRKPSRGSREWERNQNLINACTKDMPPMGSPVIPTDLPLRASPSHIPSVVVLPITQQGYQHEYVDQPKMSEVAQMALEDQAATLEYKTIKEHLSSKSPNHGVNLVENLDSLPPKVPQREASLGPPGASLSQTGLSKRLEMHHSSSYGVDYKRSYPTNSLTRSHQATTLKRNNTNSSNSSHLSRNQSFGRGDNPPPAPQRVDSIQVHSSQPSGQAVTVSRQPSLNAYNSLTRSGLKRTPSLKPDVPPKPSFAPLST | 
7 | binds |  |  |  | Omni-Reps1 (full-length) (protein, UniProt Q96D71 1-796) MEGLTLSDAEQKYYSDLFSYCDIESTKKVVVNGRVLELFRAAQLPNDVVLQIMELCGATRLGYFGRSQFYIALKLVAVAQSGFPLRVESINTVKDLPLPRFVASKNEQESRHAASYSSDSENQGSYSGVIPPPPGRGQVKKGSVSHDTVQPRTSADAQEPASPVVSPQQSPPTSPHTWRKHSRHPSGGNSERPLAGPGPFWSPFGEAQSGSSAGDAVWSGHSPPPPQENWVSFADTPPTSTLLTMHPASVQDQTTVRTVASATTAIEIRRQSSSYDDPWKITDEQRQYYVNQFKTIQPDLNGFIPGSAAKEFFTKSKLPILELSHIWELSDFDKDGALTLDEFCAAFHLVVARKNGYDLPEKLPESLMPKLIDLEDSADVGDQPGEVGYSGSPAEAPPSKSPSMPSLNQTWPELNQSSEQWETFSERSSSSQTLTQFDSNIAPADPDTAIVHPVPIRMTPSKIHMQEMELKRTGSDHTNPTSPLLVKPSDLLEENKINSSVKFASGNTVADGYSSSDSFTSDPEQIGSNVTRQRSHSGTSPDNTAPPPPPPRPQPSHSRSSSLDMNRTFTVTTGQQQAGVVAHPPAVPPRPQPSQAPGPAVHRPVDADGLITHTSTSPQQIPEQPNFADFSQFEVFAASNVNDEQDDEAEKHPEVLPAEKASDPASSLRVAKTDSKTEEKTAASAPANVSKGTTPLAPPPKPVRRRLKSEDELRPEVDEHTQKTGVLAAVLASQPSIPRSVGKDKKAIQASIRRNKETNTVLARLNSELQQQLKDVLEERISLEVQLEQLRPFSHL | 
8 |  |  |  |  | dynamin 1, endogenous in mouse brain (protein, UniProt P39053 1-867) MGNRGMEDLIPLVNRLQDAFSAIGQNADLDLPQIAVVGGQSAGKSSVLENFVGRDFLPRGSGIVTRRPLVLQLVNSTTEYAEFLHCKGKKFTDFEEVRLEIEAETDRVTGTNKGISPVPINLRVYSPHVLNLTLVDLPGMTKVPVGDQPPDIEFQIRDMLMQFVTKENCLILAVSPANSDLANSDALKIAKEVDPQGQRTIGVITKLDLMDEGTDARDVLENKLLPLRRGYIGVVNRSQKDIDGKKDITAALAAERKFFLSHPSYRHLADRMGTPYLQKVLNQQLTNHIRDTLPGLRNKLQSQLLSIEKEVDEYKNFRPDDPARKTKALLQMVQQFAVDFEKRIEGSGDQIDTYELSGGARINRIFHERFPFELVKMEFDEKELRREISYAIKNIHGIRTGLFTPDMAFETIVKKQVKKIREPCLKCVDMVISELISTVRQCTKKLQQYPRLREEMERIVTTHIREREGRTKEQVMLLIDIELAYMNTNHEDFIGFANAQQRSNQMNKKKTSGNQDEILVIRKGWLTINNIGIMKGGSKEYWFVLTAENLSWYKDDEEKEKKYMLSVDNLKLRDVEKGFMSSKHIFALFNTEQRNVYKDYRQLELACETQEEVDSWKASFLRAGVYPERVGDKEKASETEENGSDSFMHSMDPQLERQVETIRNLVDSYMAIVNKTVRDLMPKTIMHLMINNTKEFIFSELLANLYSCGDQNTLMEESAEQAQRRDEMLRMYHALKEALSIIGDINTTTVSTPMPPPVDDSWLQVQSVPAGRRSPTSSPTPQRRAPAVPPARPGSRGPAPGPPPAGSALGGAPPVPSRPGASPDPFGPPPQVPSRPNRAPPGVPSLGAWRLNSPQGKHENRAGKARL | binding [5]: binds; binding [6]: binds; binding [7]: binds
